The text below walks through data of publication PMC4858697, “Crystal structure of TRAF1 TRAF domain and its implications in the TRAF1-mediated intracellular signaling pathway” (Scientific Reports, 2016).

For test [1], the target named is TRAF1 TRAF-C domain (residues 253 to 416), lacking the TRAF-N coiled-coil domain (human) (UniProt Q13077). In words: SEC-MALS; Superdex 200 HR 10/30 in 20 mM sodium citrate pH 5.0, 1 M NaCl, coupled to MALS and refractive index detectors; both purified.
For test [2] the target is unchanged. Description: SEC; Superdex 200 10/30 gel filtration in 20 mM sodium citrate pH 5.0, 1 M NaCl; both purified. For orientation: SEC sorts molecules by how far they enter the pores of the column.

No constants are given. Whether binding was seen depends on the method and setting.

B1: TRAF1 TRAF-C domain (residues 253 to 416), lacking the TRAF-N coiled-coil domain (domain or fragment, UniProt Q13077 253-416)
chain: LEQSLRLMEEASFDGTFLWKITNVTRRCHESACGRTVSLFSPAFYTAKYGYKLCLRLYLNGDGTGKRTHLSLFIVIMRGEYDALLPWPFRNKVTFMLLDQNNREHAIDAFRPDLSSASFQRPQSETNVASGCPLFFPLSKLQSPKHAYVKDDTMFLKCIVETST
As for B1, the binding entry in test [1] and in test [2] was “no binding” each time.
